# Reference: PubChem BioAssay AID652272 (Drosophila RNAi Screening Center, 2013)
# Screen: 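Finding fly genes that regulate Hedgehog signal transduction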 (primary screen)
# System: Drosophila clone 8 (Cl8) cells
# Reagent: long dsRNA against Drosophila genes
# Measurement: 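Plate reader light from a firefly reporter under a ptc promoter fragment that responds to Hedgehog, with Renilla light as transfection reference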
# Reading the numbers: firefly Hh reporter signal: higher = more ptc reporter light; Renilla reference signal: higher = more Renilla control light
# Rule for the call: 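Hit when the z-score averaged over two replicates is under -2 or over +3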
# Calls: active = hit: reporter lowered or raised; inactive = not a hit
# The deposit covers about 21,000 reagents; this is an unselected part of those that have a named target and a result. Of all reagents, 503 (2.4%) are marked active. 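Raw plate light values, not normalised; calls rest on replicate z-scores that were not deposited; hits include reporter decreases as well as increases.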 Entries without a mark were called inactive. Not stated in the record: the amount of reagent, the time to read-out.
"firefly Hh reporter signal, replicate 1","firefly Hh reporter signal, replicate 2","firefly Hh reporter signal, replicate 3","Renilla reference signal, replicate 1","Renilla reference signal, replicate 2",gene knocked down,dsRNA
1.02e5,83097,,4817,3724,Esyt2 (Extended synaptotagmin-like protein 2),DRSC16082
56560,1.10e5,,2130,5370,mRNA-cap (mRNA-capping-enzyme),DRSC19789
92893,53449,,2560,5739,Opbp (Optix-binding protein),DRSC04966
23783,37245,50320,3808,3939,Est-6 (Esterase 6),DRSC11162
85478,46115,,2128,4181,azot (ahuizotl),DRSC06051
69418,1.06e5,,1938,2642,CG14515,DRSC14867
1.27e5,57636,,3506,5173,CG5708,DRSC02881
1.03e5,85165,,2509,2307,CG31038,DRSC15051
1.21e5,1.31e5,,4133,3981,CG31038,DRSC16326
1.35e5,1.82e5,,5536,5633,CG31038,DRSC16327
91579,61041,,9207,4364,melt (melted),DRSC11367
4.42e5,1.47e5,,26812,3169,CG43090,DRSC17439
1.51e5,94032,,3571,7526,CG7309,DRSC03045
90989,65895,,3836,2970,Idgf1 (Imaginal disc growth factor 1),DRSC03349
59493,43280,,5520,4338,CG7457,DRSC10849
71572,,,3121,1907,Mgat4b,DRSC10256
65322,57995,,2032,4944,eEFSec,DRSC04571
94729,1.11e5,,3127,3107,CG9330,DRSC11066
51552,2.35e5,,1411,8841,tgy (twiggy),DRSC20045
1.99e5,,,3912,,CG32121,DRSC09265
94790,2.34e5,,2794,9923,CG32845,DRSC07867
62304,1.15e5,,1777,5658,shep (alan shepard),DRSC08748
51788,1.01e5,,5611,5868,shep (alan shepard),DRSC09765
1.80e5,1.11e5,,7266,4390,shep (alan shepard),DRSC09771
68549,1.41e5,,985,6040,Inx6 (Innexin 6),DRSC20579
91593,52789,,2052,2423,hlk (hulk),DRSC05021
1.16e5,49292,,2567,3760,hlk (hulk),DRSC05022
89414,67344,,3202,2476,Ssrp (Structure specific recognition protein),DRSC04658
85152,67479,,2249,4984,CG13962,DRSC02304
66311,1.53e5,,1494,6547,kz (kurz),DRSC18786
1.00e5,44054,,2487,4602,Btk (Bruton tyrosine kinase),DRSC02008
1.71e5,2.05e5,,7429,7430,Btk (Bruton tyrosine kinase),DRSC02666
1.05e5,77555,,4899,3621,Jupiter,DRSC15204
88592,1.24e5,,2661,6153,Jupiter,DRSC15205
78932,1.22e5,,2288,6016,Jupiter,DRSC15389
39561,37772,,4918,3557,CG15020,DRSC08474
5.13e5,1.13e5,,27738,3622,cd (cardinal),DRSC16157
62449,60272,,7692,4507,CG13297,DRSC09971
1.08e5,49461,,2968,4787,Gal (beta galactosidase),DRSC03134
1.63e5,1.50e5,,6857,6161,Mp (Multiplexin),DRSC10193
64900,72728,,6087,5101,Mp (Multiplexin),DRSC11029
43350,47545,,4710,3668,Mp (Multiplexin),DRSC11030
84499,1.07e5,,2541,2917,CG15742,DRSC19708
93748,1.82e5,,4024,5702,CSN8 (COP9 signalosome subunit 8),DRSC02257
1.11e5,1.17e5,,2394,8499,CG7856,DRSC04896
1.16e5,77748,,2896,2434,Drice (Death related ICE-like caspase),DRSC16715
72353,78282,,1296,6859,CG15873,DRSC04277
79271,64736,,8690,4624,CG8541,DRSC10989
1.18e5,53702,,2757,1132,Rip11 (Rab11 interacting protein),DRSC20000
1.08e5,87797,,3901,2736,CtIP (CTBP-interacting protein),DRSC11785
1.71e5,98551,,3722,2308,shtd (shattered),DRSC20166
2.91e5,91274,,7289,2955,east (enhanced adult sensory threshold),DRSC18770
40029,16339,22167,3405,2025,Nf-YA (Nuclear factor Y-box A),DRSC10385
8.24e5,1.53e5,,48066,11227,Qsox3 (Quiescin sulfhydryl oxidase 3),DRSC16096
72144,70352,,3904,2891,CG10916,DRSC06012
1.35e5,1.54e5,,3137,3328,ND-24 (NADH dehydrogenase (ubiquinone) 24 kDa subunit),DRSC19960
67467,48147,,2498,1652,Taf6 (TBP-associated factor 6),DRSC11299

Laid out differently: results already given.
firefly Hh reporter signal, replicate 1	firefly Hh reporter signal, replicate 2	firefly Hh reporter signal, replicate 3	Renilla reference signal, replicate 1	Renilla reference signal, replicate 2	gene knocked down	dsRNA
72353	78282		1296	6859	CG15873	DRSC04277
79271	64736		8690	4624	CG8541	DRSC10989
1.18e5	53702		2757	1132	Rip11 (Rab11 interacting protein)	DRSC20000
1.08e5	87797		3901	2736	CtIP (CTBP-interacting protein)	DRSC11785
1.71e5	98551		3722	2308	shtd (shattered)	DRSC20166
